Protein sequences, listed by entry. Tags and fused reporters are not part of them. Lines headed by an entry give the natural chain unless they say otherwise; changes in a name come on top.
UniProt Q9JXE1: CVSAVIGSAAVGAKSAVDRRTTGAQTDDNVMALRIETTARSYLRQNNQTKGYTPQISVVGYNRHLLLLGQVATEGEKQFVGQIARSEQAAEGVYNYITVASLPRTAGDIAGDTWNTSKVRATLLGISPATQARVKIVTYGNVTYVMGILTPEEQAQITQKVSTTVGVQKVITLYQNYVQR

In article PMC4364741:

How the values were obtained:
[1] = target: Histone H1 from calf thymus (calf); experiment: ELISA; microtiter plates coated with 1 μg/well of Histone H1, incubated with different doses of CRP; A450; both purified
[2] = target: Genome-derived Neisserial antigen GNA0278 (Neisseria meningitidis); experiment: ELISA; plastic wells coated with the recombinant Nm proteins (1 μg/well), incubated with human or murine PTX3, human CRP or SAP (22 pmoles) for 1 h at 37°C, then antibodies; A450; both purified
[3] = target: Genome-derived Neisserial antigen GNA2091 (Neisseria meningitidis) (UniProt Q9JXE1); experiment: as above

B1: Human C reactive Protein (protein, UniProt P02741 19-224)
chain: QTDMSRKAFVFPKESDTSYVSLKAPLTKPLKAFTVCLHFYTELSSTRGYSIFSYATKRQDNEILIFWSKDIGYSFTVGGSEILFEVPEVTVAPVHICTSWESASGIVEFWVDGKPRVRKSLKKGYTVGAEASIILGQEQDSFGGNFEGSQSLVGDIGNVNMWDFVLSPDEINTIYLGGPFSPNVLNWRALKYEVQGEVFTKPQLWP
[1]
  binding: binds
[2]
  binding: no binding (tested: 22 pmoles)
[3]
  binding: no binding (tested: 22 pmoles)

These are yes or no findings as the source states them, for the method shown. For part of these data: A result given as binding can be weak or reduced; the word gives no strength.
